{"source": "the supplement of paper PMC7125110", "parents": {"B1": {"name": "glmS ribozyme (parent)", "chain": "AUAAAAGCGCCAGAACUACAGAAAUGUAGUUGACGAGGAGGAGGUUUAUCGAAUUUUCGGCGGAUGCCUCCAAA"}}, "note": "± gives the standard error. Many entries were measured with a wide error.", "data": [{"variants_of": "B1", "assay": "self-cleavage kobs at 2500 uM GlcN6P; higher = faster cleavage; RNA array", "settings": "with glucosamine-6-phosphate", "in_short": "(§1)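 Tiles of sequenced MiSeq chips were imaged over ~14 h at 37 °C. On them, barcoded ribozyme variants had been transcribed in situ by E. coli RNA polymerase and were tracked via a hybridised Cy3 probe while glucosamine-6-phosphate (40 μM to 10 mM) in HEPES/KCl/Mg(OAc)2 buffer flowed in. Per-tile medians, normalised to baseline and to non-cleaving reference variants, were fit to one- or two-exponential decays for kobs, and weighted Michaelis–Menten fits gave kcat and KM.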", "units": {"self-cleavage kobs at 2500 uM GlcN6P": "s⁻¹"}, "values": [{"variant": "AUAAAAGCGCCAGCACUACAGAAAUGUAGAUGUCGAGGAGGAGGUUUAUCGAAUUUUCGGCGGAUGCCUCCAAA", "note": "[A14C U30A A33U]", "self-cleavage kobs at 2500 uM GlcN6P": "0.000124 ± 8.1e-05"}, {"variant": "AUAAAAGCGCCAGACCUACAGAAAUGUAGUUGACGAGGAGGAGGUUUAUCGAAUUUUCGGCGGAUGCCUAAAAA", "note": "[A15C C70A C71A]", "self-cleavage kobs at 2500 uM GlcN6P": "3.6e-05 ± 2.6e-05"}, {"variant": "AUAAAAGCGCCAGACCUACAGAAAUGUAUUUGACGAGGAGGAGGUUUAUCGAAUUUUCGGCGGGUCCCUCCAAA", "note": "[A15C G29U A64G G66C]", "self-cleavage kobs at 2500 uM GlcN6P": "3.22e-05 ± 2.9e-05"}, {"variant": "AUAAAAGCGUCAGAGCUACAGAAAUGUAGUUGACGAGGAGGAGGUUUAUCGAAUUUUCGGCGGAUGGCUCCAAA", "note": "[C10U A15G C67G]", "self-cleavage kobs at 2500 uM GlcN6P": "1.97e-05 ± 1.6e-05"}, {"variant": "AUAAAAGCGUCAGAACUACAGAAAUGUAGUUGACGAGGAGGAGGUUUAUCGAAUUUUCGGCGGAUGCCUAUAAA", "note": "[C10U C70A C71U]", "self-cleavage kobs at 2500 uM GlcN6P": "2.65e-05 ± 2e-05"}, {"variant": "AUAAAAGCGCCAGCACUACAGAAAUGUAGUUGACGAGGAGCAGGUUUAUCGAAUUUUCGGCGGAUGCCUCCAAA", "note": "[A14C G41C]", "self-cleavage kobs at 2500 uM GlcN6P": "2.26e-05 ± 1.6e-05"}, {"variant": "AUAAAAGCGUCAGAACUACAGAAAUGUAGUUGACGAGGAGGAGGUUUAUCGAAUUUUCGGCGUAUGCGUCCAAA", "note": "[C10U G63U C68G]", "self-cleavage kobs at 2500 uM GlcN6P": "4.77e-05 ± 2.9e-05"}, {"variant": "AUAAAAGCGCUAGAACUACAGAAAUGUAGUUGACGAGGAGGAGGUUUAACGUAUUUUCGGCGGAUGCAUCCAAA", "note": "[C11U U49A A52U C68A]", "self-cleavage kobs at 2500 uM GlcN6P": "4.84e-05 ± 3.2e-05"}, {"variant": "AUAAAAGCGCCUGAACUACAGAAAUGUAGUUGACGAGGAGGAGGUUUAUCGAAUUUUCGGCGGAUGGCUCAAAA", "note": "[A12U C67G C71A]", "self-cleavage kobs at 2500 uM GlcN6P": "3.57e-05 ± 2.6e-05"}, {"variant": "AUAAAAGCGCCAGGACUACAGAAAUGUAGUUGACGAGGAGGAGGUUUAUCGAAUUCUCUGCGGAUGCCUCCAAA", "note": "[A14G U56C G59U]", "self-cleavage kobs at 2500 uM GlcN6P": "2.17e-05 ± 1.2e-05"}, {"variant": "AUAAAAGCGCCAAAACUACAGAAAUGUAGUUGACGAGGAGGAGGUUUAUCGAAUUUUCGGCGGAUGCCAGCAAA", "note": "[G13A U69A C70G]", "self-cleavage kobs at 2500 uM GlcN6P": "5.16e-05 ± 2.9e-05"}, {"variant": "AUAAAAGCGCCCGAACUACAGAAAUGUAGUUCACGAGGAGGAGGUUUAUCGAAUUUUCGGCGGAUGCCUCCAAA", "note": "[A12C G32C]", "self-cleavage kobs at 2500 uM GlcN6P": "1.31e-05 ± 1.1e-05"}, {"variant": "AUAAAAGCGCCAGUACUACAGAAAUGUAGUUGGCGAGGAGGAGGUUUAUCGAAUUUUCGGCGGGUGCCUCCAAA", "note": "[A14U A33G A64G]", "self-cleavage kobs at 2500 uM GlcN6P": "6.7e-05 ± 3.7e-05"}, {"variant": "AUAAAAGCGCCGUAACUACAGAAAUGUAGUUGACGAGGUGGAGGUUUAUCGAAUUUUCGGCGGAUGCCUCCAAA", "note": "[A12G G13U A39U]", "self-cleavage kobs at 2500 uM GlcN6P": "1.47e-05 ± 1.5e-05"}, {"variant": "AUAAAAGCGACAGAACUACAGAAAUGUAGUUGACGAGGAGGAGGUUUAUCGAAUUUUCGGCGGAUGCCUCAAAA", "note": "[C10A C71A]", "self-cleavage kobs at 2500 uM GlcN6P": "1.87e-05 ± 1.8e-05"}, {"variant": "AUAAAAGCGACAGAACUACAGAAAUGUAGUUGACGAGGAGGAGGUUUAUCAAAUUUUCGGGGGCUGCCUCCAAA", "note": "[C10A G51A C61G A64C]", "self-cleavage kobs at 2500 uM GlcN6P": "5.09e-05 ± 2.9e-05"}, {"variant": "AUAAAAGCGCGAGAACUACAGAAAUGUAGUUGACGAGGAGGAGGUUUAUCGAAUUUUCGGCGGAUGCCGCUAAA", "note": "[C11G U69G C71U]", "self-cleavage kobs at 2500 uM GlcN6P": "2.55e-05 ± 2.1e-05"}, {"variant": "AUAAAAGCGACAGAACUACAGAAAUGUAGUUGACGAGGAGGAGGUUUAUCUAAUUUUCGGCGGAUGCGUCCAAA", "note": "[C10A G51U C68G]", "self-cleavage kobs at 2500 uM GlcN6P": "6.99e-05 ± 5.1e-05"}, {"variant": "AUAAAAGCGCCGGAACUACAGAAAUGUAGUUGACGAGGAGGAGGUUUAUCGAAUUUUCAGCGGAUGCCUCCAAA", "note": "[A12G G59A]", "self-cleavage kobs at 2500 uM GlcN6P": "1.79e-05 ± 1.6e-05"}, {"variant": "AUAAAAGCGCCAGGACUACAGAAAUGUAGUUGACGAGGAGGAGGUUUAUCGAAUUUUCGGGGGAUUGCUCCAAA", "note": "[A14G C61G G66U C67G]", "self-cleavage kobs at 2500 uM GlcN6P": "3.97e-05 ± 2.6e-05"}, {"variant": "AUAAAAGCGCCAGACCUACAGAAAUGUAGUUGACGAGGAGGAGGUUUAUCGAAUUUGCGGCGGAUGCCUCCAAA", "note": "[A15C U57G]", "self-cleavage kobs at 2500 uM GlcN6P": "2.86e-05 ± 2.3e-05"}, {"variant": "AUAAAAGCGCCGUAACUACAGAAAUGUAGUUGACGAGGAGGAGGUUUAGCGAAUUUUUGGCGGAUGCCGCGAAA", "note": "[A12G G13U U49G C58U U69G C71G]", "self-cleavage kobs at 2500 uM GlcN6P": "4.63e-05 ± 2.9e-05"}, {"variant": "AUAAAAGCGCCUGAACUACAGAAAUGUAGGUGACGAGGAGGAGGUUGUCCGAAUUUUCGGCGGAUGCCCGCAAA", "note": "[A12U U30G U47G A48U U49C U69C C70G]", "self-cleavage kobs at 2500 uM GlcN6P": "3e-05 ± 2.9e-05"}, {"variant": "AUAAAAGCGCCAUAACUACAGAAAUGUAGUUGACGAGGGGGAGGUUUAUCGAAUUUUCGGCGGAUGCUUCCAAA", "note": "[G13U A39G C68U]", "self-cleavage kobs at 2500 uM GlcN6P": "0.000165 ± 8.4e-05"}, {"variant": "AUAAAAGCGCCAGGACUACAGAAAUGUAGUGGACGAGGAGGAGGUUUAUGGAAUUUUCGGCGGAUGCCUCCAAA", "note": "[A14G U31G C50G]", "self-cleavage kobs at 2500 uM GlcN6P": "2.5e-05 ± 2.1e-05"}, {"variant": "AUAAAAGCGCCAGUACUACAGAAAUGUAGUAGACGAGGAGGAGGUUAAUCGAAUUUUCGGCGGAUGCCUCCAAA", "note": "[A14U U31A U47A]", "self-cleavage kobs at 2500 uM GlcN6P": "0.0416 ± 0.021"}, {"variant": "AUAAAAGCGCCCGAACUACAGAAAUGUAGUUGACGAGGAGGAGCUUUAUCGAAUUUUCGGCGGAUGCCUCCAAA", "note": "[A12C G44C]", "self-cleavage kobs at 2500 uM GlcN6P": "1.91e-05 ± 1.4e-05"}, {"variant": "AUAAAAGCGCCUGAACUACAGAAAUGUAGUUGACGAGGAGGGGGUUUAUCGAAUUAUCGGCGGAUGUCUCCAAA", "note": "[A12U A42G U56A C67U]", "self-cleavage kobs at 2500 uM GlcN6P": "0.0029 ± 0.0017"}, {"variant": "AUAAAAGCGCCUGAACUACAGAAAUGUAGUUGACGAGGAGGAGGUUUAUCGAAUUUUAGGAGGAUGCCUCCAAA", "note": "[A12U C58A C61A]", "self-cleavage kobs at 2500 uM GlcN6P": "3.93e-05 ± 2.9e-05"}, {"variant": "AUAAAAGCGCUGGAACUACAGAAAUGUAGUUGACGAGGCGGAGGUUUAUCGAAUUUUCGGCGGAUGCCUCUAAA", "note": "[C11U A12G A39C C71U]", "self-cleavage kobs at 2500 uM GlcN6P": "3.52e-05 ± 2.1e-05"}, {"variant": "AUAAAAGCGCCAGACCUACAGAAAUGUAGUUGACUAGGAGGAGGUUUAUCGAAUUUUCGGCGGAUUCGUGCAAA", "note": "[A15C G35U G66U C68G C70G]", "self-cleavage kobs at 2500 uM GlcN6P": "5.27e-05 ± 3.1e-05"}, {"variant": "AUAAAAGCGUCAGAACUACAGAAAUGUAGUUGACGAGGAGGAGGUUUAUUGAAUUUUCGGCGGAUGCCUUCAAA", "note": "[C10U C50U C70U]", "self-cleavage kobs at 2500 uM GlcN6P": "2.41e-05 ± 2.1e-05"}, {"variant": "AUAAAAGCGCCAUAACUACAGAAAUGUAGUUGACGAGGAGGAGGUUUAUGGAAUUUUCAGCGGAUGCCUCCAAA", "note": "[G13U C50G G59A]", "self-cleavage kobs at 2500 uM GlcN6P": "3.01e-05 ± 2.7e-05"}, {"variant": "AUAAAAGCGCCCGAACUACAGAAAUGUAGUUGACGAGGAGGAGGUUUAUCGUAUUUUCGGCGGAUGCCUACAAA", "note": "[A12C A52U C70A]", "self-cleavage kobs at 2500 uM GlcN6P": "3.58e-05 ± 1.9e-05"}, {"variant": "AUAAAAGCGCAAGAACUACAGAAAUGUAGUUGACGAGGAGGAGGUUUAUCGAAUUUUCGGCGGAGGCCUCCAAA", "note": "[C11A U65G]", "self-cleavage kobs at 2500 uM GlcN6P": "2.63e-05 ± 2.3e-05"}]}, {"variants_of": "B1", "assay": "self-cleavage kobs at 10000 uM GlcN6P; higher = faster cleavage; RNA array", "settings": "with glucosamine-6-phosphate", "in_short": "as §1", "units": {"self-cleavage kobs at 10000 uM GlcN6P": "s⁻¹"}, "values": [{"variant": "AUAAAAGCGCCAGACCUACAGAAAUGUAGUUGACGAGGAGGAGGUUUAUCGAAUUUGCGGCGGAUGCCUCCAAA", "note": "[A15C U57G]", "self-cleavage kobs at 10000 uM GlcN6P": "2.07e-05 ± 1.6e-05"}, {"variant": "AUAAAAGCGCCGUAACUACAGAAAUGUAGUUGACGAGGAGGAGGUUUAGCGAAUUUUUGGCGGAUGCCGCGAAA", "note": "[A12G G13U U49G C58U U69G C71G]", "self-cleavage kobs at 10000 uM GlcN6P": "1.93e-05 ± 1.5e-05"}]}]}
